The test system of experiment [1] is PBMC. Put plainly: Immunosuppressant activity in human effector memory T cells of PBMC assessed as inhibition of anti-CD3 antibody-induced cell proliferation by ELISA. The experiment is classed as functional, cell-based. A general note: An ELISA detects its analyte on a solid surface through an enzyme-linked reagent.
Experiment [2] deals with PBMC. Put plainly: Immunosuppressant activity in human effector memory T cells of PBMC assessed as inhibition of anti-CD3 antibody-induced cell proliferation by ELISA in presence of 5 uM Kv1.3-blocker PAP1. Format: functional, cell-based. Put shortly: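 T_EM fraction of PBMCs stimulated with anti-CD3 antibody; proliferation dose–response curves for one channel blocker were run against a fixed background of a blocker of the other channel (IK-1 blocker, or 5 µM PAP-1 for Kv1.3). The read-out was EC50.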

Our source for the Activity and EC50 values is ChEMBL document CHEMBL1137754, “Inhibitors of potassium channels KV1.3 and IK-1 as immunosuppressants” (Bioorg Med Chem Lett, 2009).

The source made the active and inactive calls. No cut-off for these calls is given here.

Consider `O=C1CN(S(=O)(=O)c2ccc(Cl)cc2)c2ccccc2-c2ccccc21`, for which the outcome in the experiment on PBMC [1] was inactive. For the same molecule, in the experiment on PBMC [2], the EC50 (usually the concentration that produces a half-maximal response) was 8 µM.
